Results deposited as PubChem BioAssay AID1508588 (Peter MacCallum Cancer Centre, 2020).
This is an unselected part of about 18,000 reagents tested. Of all reagents, 790 (4.4%) got an active call. 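Calls rest on a combination of fold-change classes in drug and vehicle arms, not all shown here.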 A number with no mark means an inactive call. The numbers tell different reagents against one gene apart. A reagent listed more than once was tested more than once; the source does not tell the runs apart.

Purpose: 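Knock-downs boosting vemurafenib effects on melanoma cell growth or lactate release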 (primary screen)
Cell system: human WM266.4 melanoma cells (BRAF V600 mutant)
Knock-down reagent: siRNA pool against human genes, 40 nM
Timing: 96 h from transfection to read-out
Challenge: vemurafenib 300 nM (about IC25), added 48 h after transfection, for 48 h; comparison arm got DMSO vehicle only
Detection: 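Ratios to non-targeting siRNA for cell gain, counted as DAPI nuclei after minus before drug and averaged over two replicates, and for absorbance-read medium lactate per cell; both binned into fold-change classes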
Reading the numbers: cell gain with vemurafenib: higher = more cell gain than with non-targeting siRNA; lactate per cell with vemurafenib: higher = more lactate made per cell
Hit rule: 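Enhancement is called by pairing each knock-down's vehicle-arm and drug-arm fold-change classes for viability or glycolysis; which class combinations qualify is not given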
Calls: active = enhances vemurafenib effect; inactive = no enhancement seen

target,reagent no.,cell gain with vemurafenib,lactate per cell with vemurafenib
CALM1,1,0.09,1.63
ZNF668,1,0.43,0.97
OTUD5,1,0.57,0.73
KRT76,1,0.71,0.86
SDHD,1,0.49,1.45
CD6,1,0.7,1.45
PPP4R2,1,0.48,1.44
OR6C75,1,0.64,1.24
GPR85,1,0.29,1.02
PAK2,1,0.68,0.52
HLA-K,1,0.59,1.31
ASTE1,1,0.96,0.3
TBC1D19,1,0.55,0.93
PLIN2,1,0.8,0.71
LHFPL3,1,0.77,0.53
MYH9,1,0.66,1.8
NCOA4,1,0.65,0.6
DNTTIP1,1,0.58,0.66
DOCK1,1,0.44 (active),0.59
NOX5,1,0.79,0.78
NOX5,1,0.87,1.07
GLB1L3,1,1.04,0.84
FKBP4,1,1.08,0.66
CATSPERG,1,0.41,1.06
SYTL5,1,0.41,0.97
TDP1,1,0.83,0.74
ARFGEF3,1,0.69,1.11
GTF3A,1,0.47,0.99
FMO3,1,0.67,0.82
KRTAP5-2,1,0.57,0.52
PDE6D,1,0.95,0.55
FEM1B,1,0.93,0.92
ZC3H15,1,0.17,0.78
HNRNPC,1,0.05,2.99
C1QTNF9,1,1.11,0.82
COX7A2L,1,0.68,0.56
EDARADD,1,0.44,0.98
DEFB110,1,0.55,0.99
DEFB110,2,0.6,0.22
SPG7,1,0.61,0.84
CACNB2,1,0.99,0.46
CLEC16A,1,1.25,0.64
GINS2,1,0.34,2.27

The list goes on; the last 9 above are carried over.
target,reagent no.,cell gain with vemurafenib,lactate per cell with vemurafenib
C1QTNF9,1,1.11,0.82
COX7A2L,1,0.68,0.56
EDARADD,1,0.44,0.98
DEFB110,1,0.55,0.99
DEFB110,2,0.6,0.22
SPG7,1,0.61,0.84
CACNB2,1,0.99,0.46
CLEC16A,1,1.25,0.64
GINS2,1,0.34,2.27
ITGA2B,1,0.47,1.26
GAB3,1,0.85,0.8
CATSPERB,1,0.29,0.79
RPL7A,1,-0.12,3.06
LDLRAD4,1,0.46,1.03
OR1N2,1,0.44,0.14
PAICS,1,0.71,1.33
WDFY2,1,0.57,1.58
FZD10,1,0.24,0.57
SRFBP1,1,0.72,1.4
GNG5,1,0.91,1.81
PFN2,1,0.75,0.8
MYL4,1,0.84,0.31
TMEM179B,1,1.03,0.48
CACYBP,1,0.79,0.98
LYRM2,1,0.36 (active),0.45
CHPF2,1,0.5,0.86
AADAC,1,0.88,0.55
DDX3Y,1,1.11 (active),0.18
TTC33,1,0.49,0.52
GRIP2,1,-0.09,3.42
AKR1C2,1,0.67,1.19
SRSF11,1,0.16,1.64
MOAP1,1,0.6,1.01
OR7A17,1,0.75,0.74
NOD2,1,0.36,0.67
ATP5PF,1,0.34,0.88
STX3,1,0.6,1.14
MAP2K5,1,0.47,0.98
MYBPC2,1,0.85,0.24
LGALS14,1,0.36,1.94
ARMH4,1,0.72,0.44
FBF1,1,0.99,1.04
PPP1R12B,1,0.2,1.12
C1orf116,1,0.87,1.14
ASNSD1,1,0.88,0.4
TBX21,1,0.29,1.56
TMEM33,1,0.14,3.07
RASIP1,1,0.19,1.96
ASPDH,1,0.46,1.58
MAP3K8,1,0.1,1.52
